The other results are listed elsewhere or left out. Further columns of the screen follow, without active or inactive calls. Most of these compounds were active or inconclusive in the main read-out, so they are no random draw. Words in brackets tell the shape of the fitted curve; partial curves, single points and poor fits give uncertain potencies.
Experiment: qHTS Assay for Lipid Storage Modulators in Drosophila S3 Cells;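 as to cell number change: cells counted by Cell Tracker Red CMTPX staining in the red channel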
Details: BODIPY lipid droplet fluorescence, 18-24 h; for cell number change: measured here: cell count max response, cells fed with added oleic acid
Summary of the method: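 Drosophila S3 cells got compounds at several concentrations plus oleic acid (400 uM solution). Laser-scanning cytometry with 488 nm excitation read lipid droplets at 500-530 nm and cells at 575-640 nm. Percent activity was relative to 20 uM Triacsin C.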

[1] = measured here: cell number channel AC50, cells fed with added oleic acid
[2] = measured here: lipid fluorescence (Fed channel) AC50, cells fed with added oleic acid

Structure (SMILES)	AC50 [1]	AC50 [2]	cell number change [%]
COc1ccc(/C=N/OCC(=O)N(Cc2ccc(OC)cc2)c2ccccc2C(=O)O)cc1	2.31 µM [falling, partial curve]	20.6 µM [rising, single point]	–
COc1ccc(NC(=O)N2C3CCCC2CC(NC(=O)c2ccccc2)C3)cc1 (stereo not given)	–	–	24.3
COc1ccc(C2CC(c3ccccc3OC(=O)/C=C/c3ccccc3)=NN2C(C)=O)cc1 (stereo not given)	0.291 µM [rising, full curve, poor fit]	1.84 µM [rising, partial curve, poor fit]	19.2
O=C(Nc1ccc(C(=O)NCc2ccccc2)cc1)C1=CSCCO1	–	–	-7.98
Cc1ccc(NC(=O)CSc2nc3c(c(=O)n(C)c(=O)n3C)n2C)cc1	–	–	17.5
C#CCOc1ccc(OC)cc1C(c1c(C)[nH][nH]c1=O)c1c(C)[nH][nH]c1=O	–	–	-2.38
COc1c(C)cc(C(=O)C2CCCN(C(=O)c3ccoc3)C2)cc1C (stereo not given)	–	0.82 µM [rising, full curve, poor fit]	24.1
CCN(CC)CCOCCOc1cc(C)c(Cl)c(C)c1	32.6 µM [falling, partial curve]	25.9 µM [falling, partial curve]	-103
CC(C)(CO)NCC(=O)Nc1cc(C(F)(F)F)cc(NC(=O)CNC(C)(C)CO)c1Cl	0.731 µM [rising, full curve, poor fit]	–	47
COc1ccc(CNCC(O)(c2ccc(Cl)cc2)c2ccc(Cl)cc2)cc1	–	–	-64.9
CCOc1ccc(C2CC(c3cccc(C)c3)n3nc(N)nc3N2)cc1 (stereo not given)	–	–	9.39
O=C(Nc1nnc(C2CCCCC2)s1)c1ccc(Br)s1	–	–	9.47
O=[N+]([O-])c1cc2c(c(CSc3nnnn3-c3ccc(O)cc3)c1)OCOC2	0.13 µM [falling, full curve, poor fit]	–	-44.8
CCOc1cccc(-c2cc(C(=O)NN)[nH]n2)c1	–	29.1 µM [falling, partial curve]	19.4
COC(=O)CNC(c1ccccc1)c1cc(Br)ccc1NS(=O)(=O)c1ccc(C)cc1 (stereo not given)	3.26 µM [falling, partial curve]	18.4 µM [rising, single point]	24.6
Cc1ccc(S(=O)(=O)n2nc(OC(=O)C3CCCCC3)cc2N)cc1	–	16.4 µM [falling, partial curve]	7.77
O=C(c1ccccc1)[C@@H]1[C@@H](C(=O)c2ccc(F)cc2)[C@@]2(C(=O)Nc3ccccc32)[C@H]2c3ccccc3C=CN12	–	18.4 µM [falling, single point]	-21.5
C#CCNC(=O)/C=C/c1ccc(C)cc1	–	9.2 µM [rising, partial curve]	4.04
O=C(OCC(O)COc1ccccc1)c1ccc([N+](=O)[O-])cc1 (stereo not given)	16.4 µM [rising, partial curve]	0.184 µM [rising, full curve, poor fit]	129
CCc1nc(SCC#N)c(C#N)cc1C	0.366 µM [falling, partial curve, poor fit]	6.51 µM [falling, partial curve, poor fit]	-23.9
Cc1cccc(CSc2ccc(-c3cccs3)nn2)c1	–	16.4 µM [falling, single point]	-20.5
O=S(=O)(Nc1ccc2c(c1)OCCO2)c1cccc2nsnc12	–	1.16 µM [falling, full curve, poor fit]	2.77
COc1cc(/C=c2/sc3nc(-c4ccccc4)c(-c4ccccc4)n3c2=O)cc(OC)c1OC	–	20.6 µM [falling, single point]	-16.1
CC1=CC(=C2N=C(c3ccccc3)OC2=O)C=C(C)O1	–	9.2 µM [rising, partial curve, poor fit]	-2.58
CCOC(=O)CN(Cc1sccc1C)C(=O)Nc1ccc(OC)cc1OC	2.91 µM [rising, full curve]	29.1 µM [falling, single point]	53.7
O=C(NCCc1csc(-c2cccnc2)n1)c1cccs1	–	0.058 µM [rising, full curve, poor fit]	8.89
O=C(CCn1c(=O)sc2ccccc21)NCc1ccccc1	29.1 µM [rising, single point]	29.1 µM [rising, single point]	30.7
O=C(NNC(=O)c1cc(S(=O)(=O)N2CCCCC2)ccc1Cl)c1ccccc1O	23.1 µM [rising, single point]	29.1 µM [rising, single point]	30
CC(C)(C)c1ccc(COC(=O)CN2C(=O)NC3(CCCC3)C2=O)cc1	14.6 µM [falling, partial curve]	29.1 µM [falling, single point]	-57.9

Look-ups from the entries so far:
In AC50 [2], `O=C(CCn1c(=O)sc2ccccc21)NCc1ccccc1` has the entry 29.1 µM [rising, single point]
In AC50 [2], `CCOc1cccc(-c2cc(C(=O)NN)[nH]n2)c1` has the entry 29.1 µM [falling, partial curve]

Source: PubChem BioAssay AID2685 (National Center for Advancing Translational Sciences (NCATS), 2010)
